According to the supplement of paper PMC8288183:
± gives the standard deviation of the averaged measurements. This is one part of the list. Most values come without repeats; read them as rough.

Target: T1, NSUN6 (UniProt Q8TEA1)
T1 sequence: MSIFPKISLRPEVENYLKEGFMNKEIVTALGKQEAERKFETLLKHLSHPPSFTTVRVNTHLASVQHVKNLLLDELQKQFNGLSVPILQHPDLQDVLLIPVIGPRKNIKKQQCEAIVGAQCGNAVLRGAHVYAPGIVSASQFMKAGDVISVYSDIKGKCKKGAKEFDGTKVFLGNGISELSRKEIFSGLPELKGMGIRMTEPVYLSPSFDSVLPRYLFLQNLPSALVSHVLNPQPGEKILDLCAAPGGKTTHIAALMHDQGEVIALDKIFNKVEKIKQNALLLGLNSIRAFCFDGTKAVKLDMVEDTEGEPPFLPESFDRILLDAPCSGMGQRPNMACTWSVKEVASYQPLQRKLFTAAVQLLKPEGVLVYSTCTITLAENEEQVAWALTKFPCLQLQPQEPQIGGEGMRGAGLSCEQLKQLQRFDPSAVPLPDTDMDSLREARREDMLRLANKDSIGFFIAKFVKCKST
Assay: m5C methylation level at the target C (C/(C+U) bisulfite reads) (fraction); higher = more methylation by NSUN6; extreme values may be limits of the assay
Settings: HEK293T (wild-type)
Protocol: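 High-throughput mutagenesis reporter. About 140 bp oligo-pool variants of four natural Type II m5C substrates (substrate #1 chr15:91425541; #2 RAB15 3'UTR chr14:65413377; #3 SULT2A1 5'UTR chr19:48389569; #4 NAAA CDS chr4:76857361) were cloned as 3'UTR elements of psiCHECK-2 luciferase and transfected into wild-type HEK293T cells. Total RNA was taken 48 h later and m5C level was measured by targeted bisulfite sequencing as C/(C+U) reads at the m5C site (one library).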

[1] = parent substrate: substrate #1 (main figure)

Row | Sequence | m5C methylation level at the target C [1] | m5C methylation level at the target C (parent substrate: substrate #2) | m5C methylation level at the target C (parent substrate: substrate #3) | m5C methylation level at the target C (parent substrate: substrate #4)
1 | GCUGAC | 0.00896 | 0.000692 | 0.00597 | 0.002
2 | ACAGAC | 0.00087 | 0 | 0.00623 | 0
3 | GCAGGA | 0.000495 | 0.00524 | 0.000671 | 0.00187
4 | UCCUCG | 0.0011 | 0.000821 | 0.00143 | 0
5 | GCUCUG | 0 | 0.00193 | 0.00473 | 0.00221
6 | UCGCCA | 0 | 0.00231 | 0.00656 | 0.00121
7 | CCCAGG | 0 | 0 | 0.0014 | 0.000719
8 | ACAAGG | 0 | 0.00422 | 0.000612 | 0
9 | UCACCC | 0 | 0.000783 | 0.00261 | 0
10 | CCAUAA | 0 | 0.000783 | 0.0015 | 0
11 | CCUCAG | 0.00116 | 0.00196 | 0.000638 | 0.000946
12 | GCAAGG | 0.00334 | 0 | 0 | 0.00168
13 | UCCCUA | 0 | 0.00327 | 0.00117 | 0.00182
14 | GCGUUG | 0.00217 | 0 | 0.00085 | 0
15 | GCUGAA | 0.00229 | 0.00351 | 0.000894 | 0.000614
16 | ACAUCC | 0 | 0 | 0.00496 | 0
17 | ACUGCA | 0.000775 | 0.00258 | 0.000516 | 0.00168
18 | UCGCAU | 0 | 0.00693 | 0.000823 | 0.00493
19 | GCGGGA | 0.00487 | 0.000969 | 0.00315 | 0.00106
20 | CCUAUG | 0 | 0.00102 | 0.00146 | 0
21 | GCGGAU | 0.000507 | 0.00443 | 0 | 0.00249
22 | UCGGAU | 0 | 0 | 0.000988 | 0.0196
23 | CCGAUA | 0.00404 | 0.00128 | 0.000618 | 0.000908

Full records, quoted from the list. Values in the order: m5C methylation level at the target C [1] | m5C methylation level at the target C (parent substrate: substrate #2) | m5C methylation level at the target C (parent substrate: substrate #3) | m5C methylation level at the target C (parent substrate: substrate #4)
UCACCC in the list: 0 | 0.000783 | 0.00261 | 0
CCUAUG in the list: 0 | 0.00102 | 0.00146 | 0

(next part)

Row | Sequence | m5C methylation level at the target C [1] | m5C methylation level at the target C (parent substrate: substrate #2) | m5C methylation level at the target C (parent substrate: substrate #3) | m5C methylation level at the target C (parent substrate: substrate #4)
24 | CCGCCG | 0.0037 | 0.00143 | 0.00414 | 0
25 | GCCGAG | 0.00126 | 0.00161 | 0.000983 | 0.00309
26 | ACCGGG | 0 | 0.00602 | 0 | 0.0114
27 | ACAGUU | 0 | 0 | 0 | 0
28 | CCCCCC | 0 | 0 | 0.00152 | 0
29 | GCGAUG | 0.00189 | 0 | 0.000577 | 0.00119
30 | CCCGCG | 0.00146 | 0 | 0.00068 | 0.00165
31 | CCUAUU | 0.000855 | 0 | 0.000473 | 0.00253
32 | UCGCCC | 0.00164 | 0.000691 | 0 | 0.0018
33 | UCGGUA | 0.00233 | 0.00842 | 0 | 0.000903
34 | GCUACC | 0.00127 | 0.00409 | 0 | 0.0199
35 | ACGCCC | 0 | 0.00458 | 0.000457 | 0
36 | GCAGCG | 0.00212 | 0 | 0 | 0
37 | UCGAGC | 0 | 0.00095 | 0.00271 | 0
38 | GCACGU | 0.00158 | 0.00233 | 0.0118 | 0.00182
39 | CCUUGU | 0.00215 | 0 | 0.00135 | 0.000478
40 | ACUGUU | 0.00127 | 0 | 0 | 0
41 | UCAUAG | 0.000955 | 0.00256 | 0.000651 | 0.000906
42 | ACAGUC | 0 | 0.0101 | 0 | 0.00683
43 | CCAAUC | 0 | 0.00111 | 0.000638 | 0.000954
44 | GCCCGA | 0.00127 | 0.00838 | 0.00163 | 0.00625
45 | ACUCCA | 0.556 | 0.137 | 0.454 | 0.493 ± 0.021
46 | CCCGGA | 0.00264 | 0.00112 | 0 | 0.00101
